Reference: the supplement of paper PMC8728848
Some of the results follow.

What was measured:
Assay in all cases: glycan array binding signal (z-score within array); higher = stronger binding
Conditions in all cases: glycan notation: IUPAC condensed, linker removed
[1] = target: Fuc(a1-2)Gal6S(b1-3)GlcNAc6S
Summary of the method: (§1)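 Glycan array data were curated from 3228 arrays in the Consortium for Functional Glycomics database and kept only where the protein sequence was available. Glycan names were converted to IUPAC-condensed notation, and columns mapping to the same glycan were averaged. The binding signal is a within-array Z-score, averaged across arrays of the same protein sequence at different concentrations or buffers and across linkers. Negative Z-scores can be read as non-binding.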

Fuc(a1-2)Gal6S(b1-4)Glc = target: Fuc(a1-2)Gal6S(b1-4)Glc
Summary of the method: as §1

[2] = target: Fuc(a1-2)Gal6S(b1-4)Glc6S
Summary of the method: as §1

Fuc(a1-2)[Gal(a1-3)]Gal = target: Fuc(a1-2)[Gal(a1-3)]Gal
Summary of the method: as §1

[3] = target: Fuc(a1-2)[Gal(a1-3)]Gal(b1-3)GalNAc
Summary of the method: as §1

[4] = target: Fuc(a1-2)[Gal(a1-3)]Gal(b1-3)GalNAc(b1-3)Gal(a1-4)Gal(b1-4)Glc
Summary of the method: as §1

[5] = target: Fuc(a1-2)[Gal(a1-3)]Gal(b1-3)GlcNAc
Summary of the method: as §1

[6] = target: Fuc(a1-2)[Gal(a1-3)]Gal(b1-3)GlcNAc(b1-2)Man(a1-3)[Fuc(a1-2)[Gal(a1-3)]Gal(b1-3)GlcNAc(b1-2)Man(a1-6)]Man(b1-4)GlcNAc(b1-4)GlcNAc
Summary of the method: as §1

[7] = target: Fuc(a1-2)[Gal(a1-3)]Gal(b1-3)GlcNAc(b1-2)Man(a1-3)[Fuc(a1-2)[Gal(a1-3)]Gal(b1-3)GlcNAc(b1-2)Man(a1-6)]Man(b1-4)GlcNAc(b1-4)[Fuc(a1-6)]GlcNAc
Summary of the method: as §1

[8] = target: Fuc(a1-2)[Gal(a1-3)]Gal(b1-3)GlcNAc(b1-3)GalNAc
Summary of the method: as §1

[9] = target: Fuc(a1-2)[Gal(a1-3)]Gal(b1-3)GlcNAc(b1-6)GalNAc
Summary of the method: as §1

[10] = target: Fuc(a1-2)[Gal(a1-3)]Gal(b1-4)Glc
Summary of the method: as §1

[11] = target: Fuc(a1-2)[Gal(a1-3)]Gal(b1-4)GlcNAc
Summary of the method: as §1

[12] = target: Fuc(a1-2)[Gal(a1-3)]Gal(b1-4)GlcNAc(b1-2)Man
Summary of the method: as §1

[13] = target: Fuc(a1-2)[Gal(a1-3)]Gal(b1-4)GlcNAc(b1-2)Man(a1-3)[Fuc(a1-2)[Gal(a1-3)]Gal(b1-4)GlcNAc(b1-2)Man(a1-6)]Man(b1-4)GlcNAc(b1-4)GlcNAc
Summary of the method: as §1

[14] = target: Fuc(a1-2)[Gal(a1-3)]Gal(b1-4)GlcNAc(b1-2)Man(a1-3)[Fuc(a1-2)[Gal(a1-3)]Gal(b1-4)GlcNAc(b1-2)Man(a1-6)]Man(b1-4)GlcNAc(b1-4)[Fuc(a1-6)]GlcNAc
Summary of the method: as §1

[15] = target: Fuc(a1-2)[Gal(a1-3)]Gal(b1-4)GlcNAc(b1-3)GalNAc
Summary of the method: as §1

[16] = target: Fuc(a1-2)[Gal(a1-3)]Gal(b1-4)GlcNAc(b1-3)[Fuc(a1-2)[Gal(a1-3)]Gal(b1-4)GlcNAc(b1-6)]GalNAc
Summary of the method: as §1

[17] = target: Fuc(a1-2)[Gal(a1-3)]Gal(b1-4)GlcNAc(b1-6)GalNAc
Summary of the method: as §1

[18] = target: Fuc(a1-2)[Gal(a1-3)]Gal(b1-4)[Fuc(a1-3)]Glc
Summary of the method: as §1

[19] = target: Fuc(a1-2)[Gal(a1-3)]Gal(b1-4)[Fuc(a1-3)]GlcNAc
Summary of the method: as §1

[20] = target: Fuc(a1-2)[Gal(a1-3)]Gal(b1-4)[Fuc(a1-3)]GlcNAc(b1-3)GalNAc
Summary of the method: as §1

[21] = target: Fuc(a1-2)[Gal(a1-4)]Gal(b1-4)GlcNAc
Summary of the method: as §1

[22] = target: Fuc(a1-2)[GalNAc(a1-3)]Gal
Summary of the method: as §1

[23] = target: Fuc(a1-2)[GalNAc(a1-3)]Gal(b1-3)GalNAc(a1-3)[Fuc(a1-2)]Gal(b1-4)GlcNAc
Summary of the method: as §1

[24] = target: Fuc(a1-2)[GalNAc(a1-3)]Gal(b1-3)GalNAc(b1-3)Gal(a1-4)Gal(b1-4)Glc
Summary of the method: as §1

[25] = target: Fuc(a1-2)[GalNAc(a1-3)]Gal(b1-3)GlcNAc
Summary of the method: as §1

[26] = target: Fuc(a1-2)[GalNAc(a1-3)]Gal(b1-3)GlcNAc(b1-2)Man(a1-3)[Fuc(a1-2)[GalNAc(a1-3)]Gal(b1-3)GlcNAc(b1-2)Man(a1-6)]Man(b1-4)GlcNAc(b1-4)GlcNAc
Summary of the method: as §1

[27] = target: Fuc(a1-2)[GalNAc(a1-3)]Gal(b1-3)GlcNAc(b1-2)Man(a1-3)[Fuc(a1-2)[GalNAc(a1-3)]Gal(b1-3)GlcNAc(b1-2)Man(a1-6)]Man(b1-4)GlcNAc(b1-4)[Fuc(a1-6)]GlcNAc
Summary of the method: as §1

[28] = target: Fuc(a1-2)[GalNAc(a1-3)]Gal(b1-3)GlcNAc(b1-3)GalNAc
Summary of the method: as §1

[29] = target: Fuc(a1-2)[GalNAc(a1-3)]Gal(b1-3)GlcNAc(b1-6)GalNAc
Summary of the method: as §1

[30] = target: Fuc(a1-2)[GalNAc(a1-3)]Gal(b1-4)Glc
Summary of the method: as §1

[31] = target: Fuc(a1-2)[GalNAc(a1-3)]Gal(b1-4)GlcNAc
Summary of the method: as §1

[32] = target: Fuc(a1-2)[GalNAc(a1-3)]Gal(b1-4)GlcNAc(b1-2)Man
Summary of the method: as §1

[33] = target: Fuc(a1-2)[GalNAc(a1-3)]Gal(b1-4)GlcNAc(b1-2)Man(a1-3)[Fuc(a1-2)[GalNAc(a1-3)]Gal(b1-4)GlcNAc(b1-2)Man(a1-6)]Man(b1-4)GlcNAc(b1-4)GlcNAc
Summary of the method: as §1

[34] = target: Fuc(a1-2)[GalNAc(a1-3)]Gal(b1-4)GlcNAc(b1-2)Man(a1-3)[Fuc(a1-2)[GalNAc(a1-3)]Gal(b1-4)GlcNAc(b1-2)Man(a1-6)]Man(b1-4)GlcNAc(b1-4)[Fuc(a1-6)]GlcNAc
Summary of the method: as §1

[35] = target: Fuc(a1-2)[GalNAc(a1-3)]Gal(b1-4)GlcNAc(b1-3)Gal(b1-4)GlcNAc
Summary of the method: as §1

[36] = target: Fuc(a1-2)[GalNAc(a1-3)]Gal(b1-4)GlcNAc(b1-3)Gal(b1-4)GlcNAc(b1-3)Gal(b1-4)GlcNAc
Summary of the method: as §1

[37] = target: Fuc(a1-2)[GalNAc(a1-3)]Gal(b1-4)GlcNAc(b1-3)GalNAc
Summary of the method: as §1

[38] = target: Fuc(a1-2)[GalNAc(a1-3)]Gal(b1-4)GlcNAc(b1-3)[Fuc(a1-2)[GalNAc(a1-3)]Gal(b1-4)GlcNAc(b1-6)]GalNAc
Summary of the method: as §1

[39] = target: Fuc(a1-2)[GalNAc(a1-3)]Gal(b1-4)GlcNAc(b1-6)GalNAc
Summary of the method: as §1

[40] = target: Fuc(a1-2)[GalNAc(a1-3)]Gal(b1-4)[Fuc(a1-3)]GlcNAc
Summary of the method: as §1

[41] = target: Fuc(a1-2)[GalNAc(a1-3)]Gal(b1-4)[Fuc(a1-3)]GlcNAc(b1-3)GalNAc
Summary of the method: as §1

[42] = target: Fuc(a1-2)[GalNAc(a1-4)]Gal(b1-4)GlcNAc
Summary of the method: as §1

[43] = target: Fuc(a1-2)[GalNAc(b1-3)]Gal
Summary of the method: as §1

B1: Thrombomodulin Lectin (Mus musculus) (protein)
chain: LSALAKLQPTGSQCVEHECFALFQGPATFLDASQACQRLQGHLMTVRSSVAADVISLLLSQSSMDLGPWIGLQLPQGCDDPVHLGPLRGFQWVTGDNHTSYSRWARPNDQTAPLCGPLCVTVSTATEAAPGEPAWEEKPCETETQGFLCEFYFTASCRVDPIPVREDTKEEEGAGEPPVSPTPGSPTGPPSARPVLDEPRVPITQNPCPPLKECPPCAAPDLEGGPSVFIFPPKIKDVLMISLSPMVTCVVVDVSEDDPDVQISWFVNNVEVHTAQTQTHREDYNSTLRVVSALPIQHQDWMSGKAFACAVNNRALPSPIEKTISKPRGPVRAPQVYVLPPPAEEMTKKEFSLTCMITGFLPAEIAVDWTSNGRTEQNYKNTATVLDSDGSYFMYSKLRVQKSTWERGSLFACSVVHEGLHNHLTTKTISRSLGK
- glycan array binding signal (z-score) [1]: -0.86
- glycan array binding signal (z-score) (Fuc(a1-2)Gal6S(b1-4)Glc): 2.72
- glycan array binding signal (z-score) [2]: 0.784
- glycan array binding signal (z-score) (Fuc(a1-2)[Gal(a1-3)]Gal): 0.488
- glycan array binding signal (z-score) [3]: -0.173
- glycan array binding signal (z-score) [4]: -0.478
- glycan array binding signal (z-score) [5]: -0.404
- glycan array binding signal (z-score) [6]: 0.47
- glycan array binding signal (z-score) [7]: -1.37
- glycan array binding signal (z-score) [8]: -0.81
- glycan array binding signal (z-score) [9]: -0.295
- glycan array binding signal (z-score) [10]: -0.478
- glycan array binding signal (z-score) [11]: 0.146
- glycan array binding signal (z-score) [12]: -2.18
- glycan array binding signal (z-score) [13]: 2.81
- glycan array binding signal (z-score) [14]: 1.31
- glycan array binding signal (z-score) [15]: -0.998
- glycan array binding signal (z-score) [16]: 2.22
- glycan array binding signal (z-score) [17]: 0.082
- glycan array binding signal (z-score) [18]: 1.42
- glycan array binding signal (z-score) [19]: -0.372
- glycan array binding signal (z-score) [20]: -1.59
- glycan array binding signal (z-score) [21]: 0.651
- glycan array binding signal (z-score) [22]: 0.693
- glycan array binding signal (z-score) [23]: -0.048
- glycan array binding signal (z-score) [24]: 0.138
- glycan array binding signal (z-score) [25]: 1.61
- glycan array binding signal (z-score) [26]: -0.169
- glycan array binding signal (z-score) [27]: -0.612
- glycan array binding signal (z-score) [28]: 0.96
- glycan array binding signal (z-score) [29]: -1.94
- glycan array binding signal (z-score) [30]: -0.508
- glycan array binding signal (z-score) [31]: -1.21
- glycan array binding signal (z-score) [32]: -0.226
- glycan array binding signal (z-score) [33]: 0.56
- glycan array binding signal (z-score) [34]: 1.21
- glycan array binding signal (z-score) [35]: -1.04
- glycan array binding signal (z-score) [36]: 1.48
- glycan array binding signal (z-score) [37]: -0.216
- glycan array binding signal (z-score) [38]: 0.514
- glycan array binding signal (z-score) [39]: -0.968
- glycan array binding signal (z-score) [40]: -0.327
- glycan array binding signal (z-score) [41]: 1.49
- glycan array binding signal (z-score) [42]: 0.779
- glycan array binding signal (z-score) [43]: -0.47
